Laboratory results reported in patent US20070196421A1, “Soft tissue implants and drug combination compositions, and use thereof” (priority 2005, published 2007).
Some results were stated once for a whole list of compounds, not compound by compound.

test system: collagenase mRNA; assay: Effect of other anti-microtubule agents on IL-1 induced collagenase expression in primary chondrocytes; assay type: cell-based, calf; details: chondrocytes pre-incubated 6 hours, IL-1 20 ng/ml 18 hours

| Compound | concentration that prevented IL-1-induced collagenase expression |
| --- | --- |
| Nc1ncnc2c1ccn2[C@@H]1O[C@H](CO)[C@@H](O)[C@H]1O [tubercidin] | ≥ 100 nM |
| hexylene glycol | ≥ 100 nM |
| epothilone | ≥ 100 nM |
